# Results are given in words; binding and its absence hold for the method and conditions named. Some results given as binding are weak or reduced against the parent protein; the word gives no strength.
# By UniProt entry, the sequences of proteins in these tests, tags left out. Where a name states a change or a piece, a line headed by the entry shows the natural chain unless it says otherwise. Residues count along the entry.
# laminin alpha 4 LG domain recombinant protein (Q16363, residues 826-1816): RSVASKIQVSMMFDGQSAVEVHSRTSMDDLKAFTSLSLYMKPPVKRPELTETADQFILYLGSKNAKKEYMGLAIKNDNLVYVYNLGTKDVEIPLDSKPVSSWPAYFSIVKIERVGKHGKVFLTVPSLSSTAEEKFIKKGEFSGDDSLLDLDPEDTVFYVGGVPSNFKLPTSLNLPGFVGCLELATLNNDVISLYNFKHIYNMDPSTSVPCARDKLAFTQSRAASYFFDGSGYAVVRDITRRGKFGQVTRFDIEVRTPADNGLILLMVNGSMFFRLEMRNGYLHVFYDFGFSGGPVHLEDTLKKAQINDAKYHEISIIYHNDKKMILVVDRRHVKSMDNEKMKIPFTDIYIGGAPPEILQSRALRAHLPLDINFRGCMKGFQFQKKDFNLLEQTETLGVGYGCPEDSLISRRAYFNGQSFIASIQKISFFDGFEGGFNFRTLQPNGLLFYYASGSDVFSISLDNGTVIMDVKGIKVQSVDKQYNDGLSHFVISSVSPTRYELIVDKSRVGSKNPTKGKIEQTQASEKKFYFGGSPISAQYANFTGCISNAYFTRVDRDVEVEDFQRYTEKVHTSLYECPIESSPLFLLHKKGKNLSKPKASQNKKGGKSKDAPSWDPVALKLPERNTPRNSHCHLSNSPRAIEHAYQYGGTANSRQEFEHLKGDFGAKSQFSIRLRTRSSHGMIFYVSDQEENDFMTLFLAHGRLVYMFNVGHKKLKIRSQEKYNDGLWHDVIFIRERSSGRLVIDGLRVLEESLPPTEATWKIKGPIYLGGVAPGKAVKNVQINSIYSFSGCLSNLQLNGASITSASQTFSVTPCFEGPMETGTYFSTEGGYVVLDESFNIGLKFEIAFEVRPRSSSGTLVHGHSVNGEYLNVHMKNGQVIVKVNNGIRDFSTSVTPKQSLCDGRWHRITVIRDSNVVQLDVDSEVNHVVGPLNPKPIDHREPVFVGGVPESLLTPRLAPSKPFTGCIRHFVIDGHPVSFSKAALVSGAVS
# laminin-derived peptide α4_(1408-1434) (Q16363, residues 1408-1434): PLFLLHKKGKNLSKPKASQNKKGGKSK
# laminin-derived peptide α4_(1521-1543) (Q16363, residues 1521-1543): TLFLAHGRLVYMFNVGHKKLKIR
# UniProt P24043: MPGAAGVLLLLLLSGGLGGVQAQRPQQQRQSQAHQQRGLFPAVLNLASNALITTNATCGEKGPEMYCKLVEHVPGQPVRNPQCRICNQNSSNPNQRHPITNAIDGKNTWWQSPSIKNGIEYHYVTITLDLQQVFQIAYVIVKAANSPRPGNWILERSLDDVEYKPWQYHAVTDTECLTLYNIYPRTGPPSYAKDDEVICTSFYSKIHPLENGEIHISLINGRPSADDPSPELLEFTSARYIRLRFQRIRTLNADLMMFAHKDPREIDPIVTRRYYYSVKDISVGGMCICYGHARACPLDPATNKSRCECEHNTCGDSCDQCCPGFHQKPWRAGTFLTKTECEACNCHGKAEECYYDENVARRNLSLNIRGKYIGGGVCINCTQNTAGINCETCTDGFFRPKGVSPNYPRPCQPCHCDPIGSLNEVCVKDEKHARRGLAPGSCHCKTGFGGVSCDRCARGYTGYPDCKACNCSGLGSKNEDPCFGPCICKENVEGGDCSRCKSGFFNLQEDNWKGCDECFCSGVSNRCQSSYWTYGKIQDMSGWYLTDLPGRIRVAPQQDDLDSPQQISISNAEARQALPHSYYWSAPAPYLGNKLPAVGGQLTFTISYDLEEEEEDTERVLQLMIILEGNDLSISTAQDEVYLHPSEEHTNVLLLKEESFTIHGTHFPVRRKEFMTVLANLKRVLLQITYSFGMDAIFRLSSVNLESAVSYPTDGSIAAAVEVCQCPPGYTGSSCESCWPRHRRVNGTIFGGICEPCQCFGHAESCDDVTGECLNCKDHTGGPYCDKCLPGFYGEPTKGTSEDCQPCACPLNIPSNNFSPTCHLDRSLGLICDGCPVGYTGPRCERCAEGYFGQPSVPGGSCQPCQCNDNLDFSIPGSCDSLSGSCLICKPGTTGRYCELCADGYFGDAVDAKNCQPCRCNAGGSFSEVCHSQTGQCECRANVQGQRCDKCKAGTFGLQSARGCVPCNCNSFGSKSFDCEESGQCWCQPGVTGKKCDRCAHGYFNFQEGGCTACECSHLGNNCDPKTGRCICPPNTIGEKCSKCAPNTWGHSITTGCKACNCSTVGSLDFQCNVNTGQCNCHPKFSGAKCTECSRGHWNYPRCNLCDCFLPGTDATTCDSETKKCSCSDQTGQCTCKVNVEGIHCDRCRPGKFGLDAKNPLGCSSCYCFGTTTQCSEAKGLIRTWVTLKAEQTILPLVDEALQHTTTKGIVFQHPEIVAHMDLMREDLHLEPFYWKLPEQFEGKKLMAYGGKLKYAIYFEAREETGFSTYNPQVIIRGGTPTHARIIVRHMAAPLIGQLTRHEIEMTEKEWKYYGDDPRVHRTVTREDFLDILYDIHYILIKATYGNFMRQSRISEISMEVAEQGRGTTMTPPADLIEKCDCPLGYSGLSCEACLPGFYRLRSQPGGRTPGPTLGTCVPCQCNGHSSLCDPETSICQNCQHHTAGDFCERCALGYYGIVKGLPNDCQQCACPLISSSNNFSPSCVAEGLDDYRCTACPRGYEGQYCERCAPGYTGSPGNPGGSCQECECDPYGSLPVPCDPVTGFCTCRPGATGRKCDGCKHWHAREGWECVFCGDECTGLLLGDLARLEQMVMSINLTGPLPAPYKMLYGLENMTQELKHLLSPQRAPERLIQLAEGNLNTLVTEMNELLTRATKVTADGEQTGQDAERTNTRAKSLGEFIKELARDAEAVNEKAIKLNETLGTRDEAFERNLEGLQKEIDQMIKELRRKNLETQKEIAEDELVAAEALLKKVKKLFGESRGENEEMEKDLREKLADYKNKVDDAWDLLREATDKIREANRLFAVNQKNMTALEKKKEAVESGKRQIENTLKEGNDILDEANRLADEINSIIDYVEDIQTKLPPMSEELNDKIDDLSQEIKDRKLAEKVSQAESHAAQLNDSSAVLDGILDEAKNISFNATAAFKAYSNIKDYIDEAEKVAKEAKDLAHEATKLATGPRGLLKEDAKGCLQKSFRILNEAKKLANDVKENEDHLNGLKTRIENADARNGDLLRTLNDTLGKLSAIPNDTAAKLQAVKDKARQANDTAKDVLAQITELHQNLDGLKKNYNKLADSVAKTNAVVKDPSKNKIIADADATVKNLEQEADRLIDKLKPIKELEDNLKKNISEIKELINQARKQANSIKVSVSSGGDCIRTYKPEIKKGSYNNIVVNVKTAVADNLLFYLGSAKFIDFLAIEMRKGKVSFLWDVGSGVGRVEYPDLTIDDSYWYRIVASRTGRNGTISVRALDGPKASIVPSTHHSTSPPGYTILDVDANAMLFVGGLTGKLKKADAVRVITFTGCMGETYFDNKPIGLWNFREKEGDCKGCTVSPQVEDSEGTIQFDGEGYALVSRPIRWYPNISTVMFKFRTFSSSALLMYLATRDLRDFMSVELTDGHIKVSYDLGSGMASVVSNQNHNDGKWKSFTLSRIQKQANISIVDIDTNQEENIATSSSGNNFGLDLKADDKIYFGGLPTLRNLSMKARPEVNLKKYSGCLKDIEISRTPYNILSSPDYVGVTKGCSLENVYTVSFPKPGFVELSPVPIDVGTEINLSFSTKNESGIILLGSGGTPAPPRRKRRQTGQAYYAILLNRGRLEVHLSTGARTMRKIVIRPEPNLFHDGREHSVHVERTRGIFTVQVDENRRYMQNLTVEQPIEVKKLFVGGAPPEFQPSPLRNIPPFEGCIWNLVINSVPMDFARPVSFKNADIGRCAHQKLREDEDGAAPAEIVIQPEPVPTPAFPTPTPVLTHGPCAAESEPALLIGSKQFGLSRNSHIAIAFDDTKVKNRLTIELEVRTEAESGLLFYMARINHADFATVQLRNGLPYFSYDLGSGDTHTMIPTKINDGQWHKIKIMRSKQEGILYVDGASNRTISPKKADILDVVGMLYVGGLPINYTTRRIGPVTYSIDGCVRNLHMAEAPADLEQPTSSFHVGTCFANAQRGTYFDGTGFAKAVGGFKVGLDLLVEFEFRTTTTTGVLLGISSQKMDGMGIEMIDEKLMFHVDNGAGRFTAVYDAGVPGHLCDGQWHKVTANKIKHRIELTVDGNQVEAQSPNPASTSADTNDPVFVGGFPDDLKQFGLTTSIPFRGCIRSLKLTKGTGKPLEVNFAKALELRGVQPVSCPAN
# UniProt P09038, residues 143-288: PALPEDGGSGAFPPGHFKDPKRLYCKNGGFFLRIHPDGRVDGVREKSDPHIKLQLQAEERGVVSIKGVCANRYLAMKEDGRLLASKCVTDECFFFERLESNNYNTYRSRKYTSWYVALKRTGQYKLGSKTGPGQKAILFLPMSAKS
# UniProt P01127, residues 82-190: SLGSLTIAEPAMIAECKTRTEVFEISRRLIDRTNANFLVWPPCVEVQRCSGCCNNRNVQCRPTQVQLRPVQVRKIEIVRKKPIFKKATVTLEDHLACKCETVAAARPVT
# UniProt P34741, residues 19-144: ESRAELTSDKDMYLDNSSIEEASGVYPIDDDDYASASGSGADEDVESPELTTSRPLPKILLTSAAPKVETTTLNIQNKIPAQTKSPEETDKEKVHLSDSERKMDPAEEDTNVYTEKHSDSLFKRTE
# How the values were obtained:
# Assay in all cases: ELISA
# [1] = target: laminin-derived peptide α4_(1521-1543) (human) (UniProt Q16363)
# [2] = target: laminin-derived peptide α4_(1408-1434) (human) (UniProt Q16363)
# laminin-221 = laminin-221 (UniProt P24043)
# [3] = target: T1, laminin-derived peptide α5_(3312-3325) (human) (UniProt O15230)
# T1 sequence (peptide): ARKASRRSRQPARH
# [4] = target: laminin alpha 4 LG domain recombinant protein (human) (UniProt Q16363)
# [5] = target: T2, laminin-derived peptide α5_(3539-3550) (human) (UniProt O15230)
# T2 sequence (peptide): TLPDVGLELEVR
# [6] = target: T3, laminin-derived peptide α3_(3031-3043) (human) (UniProt Q16787)
# T3 sequence (peptide): KNSFMALYLSKGR
# [7] = target: T4, laminin-derived peptide α3_(2932-2951) (human) (UniProt Q16787)
# T4 sequence (peptide): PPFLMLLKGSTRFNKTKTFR
binding [1],binding [2],binding (laminin-221),binding [3],binding [4],binding [5],binding [6],binding [7],Substance
binds,binds,binds,no binding (tested: 1 μg/mL),binds,–,–,–,fibroblast growth factor (FGF)-2 (from UniProt P09038 143-288) (ligand)
–,binds,–,no binding (tested: 1 μg/mL),binds,–,–,–,platelet-derived growth factor (PDGF)-BB (from UniProt P01127 82-190) (ligand)
binds,binds,–,binds weakly,–,no binding (tested: 1 μg/mL),binds weakly,binds weakly,recombinant human syndecan-2 (from UniProt P34741 19-144) (receptor)

# Source: doi:10.1101/259481
